About 770 (0.35%) of roughly 220,000 compounds were called active. The inconclusive results got no clear call from the source; some entries with a clear call stand among them for comparison. Rule as the data show it: active = binding response below about 49% or above about 150%; inconclusive = no clear call, values can overlap the other calls; inactive = in between.
biological target: Guanine nucleotide-binding protein G(o) subunit alpha (Homo sapiens) (UniProt P09471); assay: RGS7-Galphao binding modulators, primary screen, biochemical, multiplexed bead flow cytometry (AID 1439); details: at 10 µM, actives lie on both sides;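 also: fluorescent Galphao held in activated GDP-AlF4 state binding bead-coupled RGS7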

Sequences of proteins named here, by UniProt entry; tags and fusion partners are left off.
UniProt P09471, whole entry, looked up: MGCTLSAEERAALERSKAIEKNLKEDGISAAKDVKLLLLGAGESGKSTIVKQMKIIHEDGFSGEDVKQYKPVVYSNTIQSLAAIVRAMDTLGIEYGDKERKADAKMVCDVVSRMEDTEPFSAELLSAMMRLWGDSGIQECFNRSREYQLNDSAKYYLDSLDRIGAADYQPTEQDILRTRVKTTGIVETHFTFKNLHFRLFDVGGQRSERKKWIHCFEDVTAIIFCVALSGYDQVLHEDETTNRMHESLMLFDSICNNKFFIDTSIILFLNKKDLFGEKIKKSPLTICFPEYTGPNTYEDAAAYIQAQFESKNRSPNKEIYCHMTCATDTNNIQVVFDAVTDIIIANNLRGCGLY

| Compound | binding response (% of control) |
| --- | --- |
| Cc1nc(CS(=O)(=O)c2ccccn2)sc1C(=O)NNC(=O)c1ccc(Cl)cc1 | inconclusive: 74.5% |
| O=C1Oc2ccccc2C(=O)/C1=C/c1ccccc1O | inconclusive: 110% |
| CC(C)n1nnnc1SCC(=O)Nc1ccc2c(c1)OCCO2 | inconclusive: 112% |
| Cc1cc(C(=O)NC(C)c2ccccc2)c2cc(F)ccc2n1 (centres undefined) | inconclusive: 109% |
| CC(Sc1nncn1C)C(=O)Nc1ccc(S(N)(=O)=O)cc1 (centres undefined) | inconclusive: 104% |
| COc1ccc(C2CC(c3ccc(F)cc3)n3nc(NC(=O)c4ccco4)nc3N2)cc1 (centres undefined) | inconclusive: 30.1% |
| CC(C)(C)c1ccc(OCCOCCn2cnc3ccccc3c2=O)cc1 | inconclusive: 106% |
| C/C(CC(=O)Nc1cccc(Cl)c1Cl)=N\NC(=O)c1ccccc1C | inactive: 97.6% |
| Cc1ccc(/C=C/C(=O)OCn2nnc3ccccc3c2=O)o1 | inconclusive: 107% |
| Cc1cccc(N2CCN(C(=O)c3ccc4nc(N5CCCCC5)sc4c3)CC2)c1C | inconclusive: 102% |
| CCOCCCNC(=O)c1c[nH]c2c(CC)cccc2c1=O | inactive: 99.2% |
| NNC(=O)CSc1nc(-c2ccccc2)nc2c1CCCC2 | inconclusive: 95.8% |
| COC(=O)C(C)(C)ONC(=O)Nc1ccc([N+](=O)[O-])cc1 | inconclusive: 99.6% |
| NC1=NC[C@H](Cc2ccc(O)cc2)N1CCc1cccc2ccccc12 | inconclusive: 115% |
| Cc1nc2c(C)cccc2c2c1CCN2c1ccccc1F | inconclusive: 108% |
| N=C(N)SCP(=O)(c1ccccc1)c1ccccc1 | inconclusive: 70.8% |
| c1csc(-c2ccn[nH]2)c1 | inconclusive: 239% |
| CC(=O)Nc1c(C(N)=O)oc2ccc(Cl)cc12 | inconclusive: 96.6% |
| CCCNC(=O)NC(=O)c1cnccc1C(F)(F)F | inconclusive: -117% |
| CCOC(=O)N1CCN(C(=S)NC(=O)C2CCCC2)CC1 | inconclusive: 75.1% |

2 successive entries from above, for reference:

| Compound | binding response (% of control) |
| --- | --- |
| CC(C)(C)c1ccc(OCCOCCn2cnc3ccccc3c2=O)cc1 | inconclusive: 106% |
| C/C(CC(=O)Nc1cccc(Cl)c1Cl)=N\NC(=O)c1ccccc1C | inactive: 97.6% |

(further entries)

| Compound | binding response (% of control) |
| --- | --- |
| CCN(C(=O)COC(=O)c1ccc(N2C(=O)c3ccccc3C2=O)cc1)C1CCS(=O)(=O)C1 (centres undefined) | inactive: 103% |
| O=C(/C=C/c1cccc(F)c1)Nc1ccc(S(=O)(=O)Nc2ncccn2)cc1 | inconclusive: -1.62% |
| Cc1ccc(NC2Sc3ccccc3NC2=O)cc1Cl (centres undefined) | inconclusive: 171% |
| CC(=O)NC(Cc1ccc(F)c(F)c1)C(=O)NC1CCN(C(=O)c2ccc(C)cc2)CC1 (centres undefined) | inactive: 95.6% |
| CC(C)(O)C1=NOC(c2ccccc2)C1 (centres undefined) | active: 338% [activator] |
| CC(C)(C)C(=O)N1CCC(O)(CS(=O)(=O)Cc2ccccc2)CC1 | inactive: 105% |
| Cc1ccc(OCC(=O)N2CCN(S(=O)(=O)c3ccccc3[N+](=O)[O-])CC2)cc1 | inconclusive: 109% |
| COc1cc(/C=C2\SC(=S)N(NS(=O)(=O)c3ccc(C)cc3)C2=O)ccc1O | inconclusive: 18.7% |
| Cc1onc(-c2ccccc2)c1-c1csc(N/N=C/c2ccccc2Cl)n1 | inconclusive: -737% |
| CC1(C)Cc2c(sc(NC(=O)Cc3ccccc3)c2C#N)CO1 | inconclusive: -24.5% |
| NC(=O)N/N=C/CCc1ccccc1 | inconclusive: 63.7% |
| O=c1cnnc(N/N=C/c2ccc3c(c2)OCO3)[nH]1 | inconclusive: 115% |
| O=C(CC1SC(=Nc2ccc(OC(F)F)cc2)N(CCC2=CCCCC2)C1=O)Nc1ccccc1F (centres undefined) | inactive: 88.5% |
| O=P(COCCCCCOCP(=O)(c1ccccc1)c1ccccc1)(c1ccccc1)c1ccccc1 | inactive: 105% |
| Cc1c(-c2nc(-c3ccc(C(F)(F)F)cc3)no2)n(C)oc1=O | inconclusive: 99% |
| CCNC(=O)COC(=O)c1cc(-c2ccco2)nc2ccccc12 | inconclusive: 87.7% |
| Cc1cccc(NC(=S)Nc2ccccn2)c1 | inconclusive: 45.5% |
| COc1ccc(-c2cc(C(F)(F)F)nc(S(=O)(=O)CCCC(=O)Nc3cccnc3Cl)n2)cc1OC | inactive: 99.6% |
| Cc1sc2ncn(CC(=O)Nc3cccc(S(N)(=O)=O)c3)c(=O)c2c1-c1ccccc1 | inconclusive: 96.7% |
| COC(=O)C1=C(C)N(Cc2ccccc2)C(=O)N[C@H]1c1cccs1 | inconclusive: 91.8% |

| Compound | binding response (% of control) |
| --- | --- |
| CC(C)Sc1ccc([N+](=O)[O-])cc1C(=O)Nc1ccncc1 | inconclusive: 106% |
| COCCCNC(=O)c1cc(Sc2nnc(C)s2)nc2ccccc12 | inconclusive: -1.44% |
| CC(C)Oc1ccc(Cc2cnc(=S)[nH]c2N)cc1 | inconclusive: 80.5% |
| CCCCN(Cc1cc2cc(C)ccc2[nH]c1=O)C(=O)c1ccccn1 | inconclusive: 94.5% |
| O=C1CNC(=S)N1c1nc2ccccc2s1 | inconclusive: 96% |
| CC(=O)Nc1ccc(Oc2nc(-c3ccccn3)nc3ccccc23)cc1 | inconclusive: 95% |
| COc1ccc2cc(C(=O)OC(C)C)sc(=O)c2c1OC | inactive: 97.8% |
| CCOc1ccc(Br)cc1CN(CC)CC | inconclusive: 58.4% |
| CC(=O)Nc1ccc(S(=O)(=O)NNC(=O)c2ccc(S(=O)(=O)N3CCCCC3)cc2)cc1 | inactive: 99.3% |
| Cc1ccc2c(c1)C1CN(C)CCC1N2Sc1ccccc1[N+](=O)[O-] (centres undefined) | inconclusive: 104% |
| C/C(CC(=O)NC(C)c1ccccc1)=N\NC(N)=S (centres undefined) | inconclusive: 110% |
| CCCN(CC1CC1)C(=O)CSc1nnc(-c2cc(-c3cccs3)nc3ccccc23)o1 | inactive: 98.9% |
| CCOc1cc(/C=C2/NC(=O)NC2=O)cc([N+](=O)[O-])c1O | inconclusive: 98.5% |
| CCOC(=O)c1c(C)[nH]c(C)c1C(=O)COC(=O)c1cc(OC)c(OC)cc1OC | inconclusive: 93.4% |
| Cc1ccc(C2=NOC3(CC(=O)N(c4ccc(C)cc4)C3=O)C2)cc1 (centres undefined) | inconclusive: 219% |
| CCCc1nc(NCCO)c(C#N)c2c1CCCC2 | inconclusive: 151% |
| COc1ccc(C2SCC(=O)N2CCc2ccc(OC)c(OC)c2)cc1 (centres undefined) | inactive: 97.7% |
| CCN1CCN(C(=O)c2ccc3c(c2)S(=O)(=O)c2ccccc2C3=O)CC1 | inconclusive: 116% |
| O=C(Nc1ccc(Cl)cc1)NC1CCS(=O)(=O)C1 (centres undefined) | inactive: 109% |

Source: PubChem BioAssay AID1439 (NMMLSC, 2008)
